For 17 molecules, binding results are on record in PMC7774954, “Interactomic affinity profiling by holdup assay: Acetylation and distal residues impact the PDZome-binding specificity of PTEN phosphatase” (PLoS ONE, 2020).

By UniProt entry, the sequences of proteins in these tests, tags left out. Where a name states a change or a piece, a line headed by the entry shows the natural chain unless it says otherwise.
UniProt P60484: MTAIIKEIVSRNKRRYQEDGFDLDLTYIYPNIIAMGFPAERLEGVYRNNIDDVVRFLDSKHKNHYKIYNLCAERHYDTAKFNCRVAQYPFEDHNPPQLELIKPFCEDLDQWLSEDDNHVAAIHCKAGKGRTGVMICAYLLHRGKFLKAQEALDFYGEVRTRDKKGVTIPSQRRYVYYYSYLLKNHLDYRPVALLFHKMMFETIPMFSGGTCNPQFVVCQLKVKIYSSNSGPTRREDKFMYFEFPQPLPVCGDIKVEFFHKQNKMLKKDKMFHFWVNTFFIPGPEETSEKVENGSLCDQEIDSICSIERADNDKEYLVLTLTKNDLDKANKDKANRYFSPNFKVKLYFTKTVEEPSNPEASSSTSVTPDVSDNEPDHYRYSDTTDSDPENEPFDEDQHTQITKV

Results are given in words; binding and its absence hold for the method and conditions named.

Sequences and labels used below:
B1: INADL-4 (domain or fragment, UniProt Q8NI35 553-639)
chain: DAELQKYSKLLPIHTLRLGVEVDSFDGHHYISSIVSGGPVDTLGLLQPEDELLEVNGMQLYGKSRREAVSFLKEVPPPFTLVCCRRL
B2: PARD3B-1 (domain or fragment, UniProt Q8TEW8 201-289)
chain: TRTVEISGEGGPLGIHVVPFFSSLSGRILGLFIRGIEDNSRSKREGLFHENECIVKINNVDLVDKTFAQAQDVFRQAMKSPSVLLHVLP
B3: DLG3-3 (domain or fragment, UniProt Q92796 379-465)
chain: DFTREPRKIILHKGSTGLGFNIVGGEDGEGIFVSFILAGGPADLSGELRRGDRILSVNGVNLRNATHEQAAAALKRAGQSVTIVAQY
B4: INADL-3 (domain or fragment, UniProt Q8NI35 365-453)
chain: NVELVRKDGQSLGIRIVGYVGTSHTGEASGIYVKSIIPGSAAYHNGHIQVNDKIVAVDGVNIQGFANHDVVEVLRNAGQVVHLTLVRRK
B5: PDZRN4-2 (domain or fragment, UniProt Q6ZMN7 402-486)
chain: EVELCRVSSQEKLGLTVCYRTDDEEDTGIYVSEVDPNSIAAKDGRIREGDRILQINGEDVQNREEAVALLSNDECKRIVLLVARP
B6: PDZD2-1 (domain or fragment, UniProt O15018 85-182)
chain: LSFGNIPVFGDYGEKRRGGKKRKTHQGPVLDVGCIWVTELRKNSPAGKSGKVRLRDEILSLNGQLMVGVDVSGASYLAEQCWNGGFIYLIMLRRFKHK
B7: PDZRN4-1 (domain or fragment, UniProt Q6ZMN7 224-314)
chain: TIVLERENDTLGFNIIGGRPNQNNQEGTSTEGIYVSKILENGPADRADGLEIHDKIMEVNGKDLSKATHEEAVEAFRNAKEPIVVQVLRRT
B8: USH1C-1 (domain or fragment, UniProt Q9Y6N9 87-169)
chain: EVRLDRLHPEGLGLSVRGGLEFGCGLFISHLIKGGQADSVGLQVGDEIVRINGYSISSCTHEEVINLIRTKKTVSIKVRHIGL
B9: TJP2-3 (domain or fragment, UniProt Q9UDY2 509-590)
chain: NTKMVRFKKGDSVGLRLAGGNDVGIFVAGIQEGTSAEQEGLQEGDQILKVNTQDFRGLVREDAVLYLLEIPKGEMVTILAQS
B10: PDZD7-1 (domain or fragment, UniProt Q9H5P4 86-168)
chain: SVRVEKSPAGRLGFSVRGGSEHGLGIFVSKVEEGSSAERAGLCVGDKITEVNGLSLESTTMGSAVKVLTSSSRLHMMVRRMGR
B11: INADL-5 (domain or fragment, UniProt Q8NI35 686-772)
chain: IVELVKDCKGLGFSILDYQDPLDPTRSVIVIRSLVADGVAERSGGLLPGDRLVSVNEYCLDNTSLAEAVEILKAVPPGLVHLGICKP
B12: PDZD2-3 (domain or fragment, UniProt O15018 586-672)
chain: IIGLYKEKGKGLGFSIAGGRDCIRGQMGIFVKTIFPNGSAAEDGRLKEGDEILDVNGIPIKGLTFQEAIHTFKQIRSGLFVLTVRTK
B13: DFNB31-2 (domain or fragment, UniProt Q9P202 279-361)
chain: KVNLVLGDGRSLGLTIRGGAEYGLGIYITGVDPGSEAEGSGLKVGDQILEVNGRSFLNILHDEAVRLLKSSRHLILTVKDVGR
B14: DLG3-1 (domain or fragment, UniProt Q92796 130-217)
chain: EEIVLERGNSGLGFSIAGGIDNPHVPDDPGIFITKIIPGGAAAMDGRLGVNDCVLRVNEVDVSEVVHSRAVEALKEAGPVVRLVVRRR
B15: NHERF4-4 (domain or fragment, UniProt Q86UT5 467-548)
chain: QCFLYPGPGGSYGFRLSCVASGPRLFISQVTPGGSAARAGLQVGDVILEVNGYPVGGQNDLERLQQLPEAEPPLCLKLAARS
B16: INADL-9 (domain or fragment, UniProt Q8NI35 1533-1615)
chain: PVDLQKKAGRGLGLSIVGKRNGSGVFISDIVKGGAADLDGRLIQGDQILSVNGEDMRNASQETVATILKCAQGLVQLEIGRLR
B17: NHERF4-1 (domain or fragment, UniProt Q86UT5 115-196)
chain: FCLLSKEEGKSFGFHLQQELGRAGHVVCRVDPGTSAQRQGLQEGDRILAVNNDVVEHEDYAVVVRRIRASSPRVLLTVLARH

The target in the first assay is PTEN_13 (human) (UniProt P60484). Briefly: holdup assay; biotinylated PBM peptide on streptavidin resin, biotin resin as reference; tag-PDZ at 4 uM in crude E. coli lysate, 15 min, filtrate read by capillary electrophoresis; singlicate; BI converted into KD with the mean peptide concentration back-calculated from FP (34, 28, 25, 17 uM); LogKD is -log10 of KD in M, overall uncertainty ± 0.12; cells at the column's lower value are pairs without detected binding; only the target purified.
Consider B1, for which the binding result was “no binding (tested: lower value)”.

For B2, the binding result was “no binding (tested: lower value)”.

As for B3, the binding entry is reported as “no binding (tested: lower value)”.

Turning to B4, the binding result was “no binding (tested: lower value)”.

Take B5: the binding result was “no binding (tested: lower value)”.

As for B6, the binding entry is given as “no binding (tested: lower value)”.

For the molecule B7, the binding result was “no binding (tested: lower value)”.

Take B8: the binding entry was “no binding (tested: lower value)”.

As to B9, the binding result is “no binding (tested: lower value)”.

As to B10, the binding entry was “no binding (tested: lower value)”.

In the case of B11, the binding entry is reported as “no binding (tested: lower value)”.

As for B12, the binding result was “no binding (tested: lower value)”.

B13: the binding entry is “no binding (tested: lower value)”.

For B14, the binding result is recorded as “no binding (tested: lower value)”.

Consider B15, for which the binding result was “no binding (tested: lower value)”.

Take B16: the binding result is on record as “no binding (tested: lower value)”.

As to B17, the binding result is “no binding (tested: lower value)”.

The next assay has as its target PTEN_Ac (human) (UniProt P60484). Described as above.
As for B1, the binding result is on record as “no binding (tested: lower value)”.

B2: the binding result is “no binding (tested: lower value)”.

For the molecule B3, the binding result is given as “no binding (tested: lower value)”.

B4: the binding entry is “no binding (tested: lower value)”.

Turning to B5, the binding result was “no binding (tested: lower value)”.

In the case of B6, the binding result is recorded as “no binding (tested: lower value)”.

As to B7, the binding entry is recorded as “no binding (tested: lower value)”.

With B8, the binding result is on record as “no binding (tested: lower value)”.

As for B9, the binding entry is “no binding (tested: lower value)”.

Turning to B10, the binding result was “no binding (tested: lower value)”.

B11: the binding result is “no binding (tested: lower value)”.

On to B12, for which the binding result is listed as “no binding (tested: lower value)”.

As for B13, the binding entry is listed as “no binding (tested: lower value)”.

On to B14, for which the binding entry is reported as “no binding (tested: lower value)”.

Turning to B15, the binding result is on record as “no binding (tested: lower value)”.

Turning to B16, the binding result was “no binding (tested: lower value)”.

Turning to B17, the binding entry is given as “no binding (tested: lower value)”.

The next assay addresses PTEN_11 (human) (UniProt P60484). The description is as above.
On to B1, for which the binding entry is listed as “no binding (tested: lower value)”.

As for B2, the binding entry was “no binding (tested: lower value)”.

Take B3: the binding result is on record as “no binding (tested: lower value)”.

Consider B4, for which the binding result is “no binding (tested: lower value)”.

In the case of B5, the binding result is listed as “no binding (tested: lower value)”.

B6: the binding entry is reported as “no binding (tested: lower value)”.

Turning to B7, the binding result is on record as “no binding (tested: lower value)”.

As to B8, the binding entry is recorded as “no binding (tested: lower value)”.

On to B9, for which the binding result is “no binding (tested: lower value)”.

On to B10, for which the binding result is “no binding (tested: lower value)”.

For B11, the binding entry is reported as “no binding (tested: lower value)”.

B12: the binding entry is “no binding (tested: lower value)”.

For the molecule B13, the binding entry was “no binding (tested: lower value)”.

For B14, the binding result is listed as “no binding (tested: lower value)”.

As for B15, the binding entry is recorded as “no binding (tested: lower value)”.

Consider B16, for which the binding entry was “no binding (tested: lower value)”.

Turning to B17, the binding entry is recorded as “no binding (tested: lower value)”.

The target of another assay is PTEN_KR (human) (UniProt P60484). The assay is described as above.
B1: the binding entry is reported as “no binding (tested: lower value)”.

With B2, the binding entry is recorded as “no binding (tested: lower value)”.

For B3, the binding entry is “no binding (tested: lower value)”.

Take B4: the binding entry is reported as “no binding (tested: lower value)”.

Consider B5, for which the binding entry was “no binding (tested: lower value)”.

Turning to B6, the binding entry is “no binding (tested: lower value)”.

Take B7: the binding result is “no binding (tested: lower value)”.

For the molecule B8, the binding entry was “no binding (tested: lower value)”.

Consider B9, for which the binding result is “no binding (tested: lower value)”.

Consider B10, for which the binding result was “no binding (tested: lower value)”.

For B11, the binding entry is “no binding (tested: lower value)”.

Regarding B12, the binding result was “no binding (tested: lower value)”.

As for B13, the binding entry was “no binding (tested: lower value)”.

Regarding B14, the binding result is given as “no binding (tested: lower value)”.

For the molecule B15, the binding entry was “no binding (tested: lower value)”.

For B16, the binding entry is reported as “no binding (tested: lower value)”.

Consider B17, for which the binding result is “no binding (tested: lower value)”.
